Results from the supplement of paper PMC10849652.
Some of the results follow. Residues, ends and D or L forms follow the SMILES beside them. *: point of attachment. Cbz = O=C(OCc1ccccc1)*

Sequences of proteins named here, by UniProt entry; tags and fusion partners are left off. A change or cut given only in a name is not applied to a line headed by its entry.
UniProt Q8NB37: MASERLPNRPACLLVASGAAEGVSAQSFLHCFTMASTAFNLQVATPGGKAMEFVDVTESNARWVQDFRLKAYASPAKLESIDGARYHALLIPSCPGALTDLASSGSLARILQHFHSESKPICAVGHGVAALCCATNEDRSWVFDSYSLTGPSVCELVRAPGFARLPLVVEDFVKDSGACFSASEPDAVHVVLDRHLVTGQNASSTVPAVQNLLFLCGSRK
UniProt Q92947: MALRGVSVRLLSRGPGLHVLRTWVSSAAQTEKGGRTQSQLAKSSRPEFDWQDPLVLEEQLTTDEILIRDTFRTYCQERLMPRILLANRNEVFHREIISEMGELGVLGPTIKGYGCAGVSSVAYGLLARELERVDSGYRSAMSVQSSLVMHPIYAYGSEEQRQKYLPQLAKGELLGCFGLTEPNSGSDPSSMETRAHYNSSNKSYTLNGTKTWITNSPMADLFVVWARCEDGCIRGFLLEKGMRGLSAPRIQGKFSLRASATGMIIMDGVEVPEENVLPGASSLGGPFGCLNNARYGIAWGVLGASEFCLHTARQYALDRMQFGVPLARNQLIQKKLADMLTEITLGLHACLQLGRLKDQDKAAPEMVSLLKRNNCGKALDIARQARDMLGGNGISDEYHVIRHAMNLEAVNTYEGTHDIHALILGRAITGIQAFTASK
UniProt P60520, whole entry, looked up: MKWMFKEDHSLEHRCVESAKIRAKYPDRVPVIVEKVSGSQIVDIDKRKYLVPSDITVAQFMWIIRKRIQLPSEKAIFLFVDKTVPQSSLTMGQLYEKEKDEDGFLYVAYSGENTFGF
UniProt Q9UJ14: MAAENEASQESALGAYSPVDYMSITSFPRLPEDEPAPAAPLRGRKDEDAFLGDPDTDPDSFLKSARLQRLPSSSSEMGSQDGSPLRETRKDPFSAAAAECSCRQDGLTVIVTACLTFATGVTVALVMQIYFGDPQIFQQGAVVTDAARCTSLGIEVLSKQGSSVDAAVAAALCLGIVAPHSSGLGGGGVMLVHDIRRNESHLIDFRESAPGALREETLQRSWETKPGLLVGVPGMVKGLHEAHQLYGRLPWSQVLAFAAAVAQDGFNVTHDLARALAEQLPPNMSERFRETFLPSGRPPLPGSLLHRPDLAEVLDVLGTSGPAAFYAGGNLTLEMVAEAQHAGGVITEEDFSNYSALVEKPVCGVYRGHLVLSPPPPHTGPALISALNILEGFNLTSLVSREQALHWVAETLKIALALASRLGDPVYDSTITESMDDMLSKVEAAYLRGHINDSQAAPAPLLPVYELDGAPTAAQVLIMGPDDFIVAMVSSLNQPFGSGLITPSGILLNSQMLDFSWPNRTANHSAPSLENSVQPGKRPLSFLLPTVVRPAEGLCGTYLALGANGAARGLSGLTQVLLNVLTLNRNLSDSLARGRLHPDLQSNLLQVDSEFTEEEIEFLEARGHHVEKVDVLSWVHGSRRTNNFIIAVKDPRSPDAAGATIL
UniProt P48507: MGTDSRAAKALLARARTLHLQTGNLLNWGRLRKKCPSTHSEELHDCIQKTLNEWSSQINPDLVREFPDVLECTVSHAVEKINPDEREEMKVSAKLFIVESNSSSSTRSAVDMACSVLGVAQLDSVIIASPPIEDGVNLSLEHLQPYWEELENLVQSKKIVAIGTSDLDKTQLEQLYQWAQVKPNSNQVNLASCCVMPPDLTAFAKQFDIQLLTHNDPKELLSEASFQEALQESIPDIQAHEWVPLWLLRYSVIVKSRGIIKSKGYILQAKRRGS
UniProt Q06546: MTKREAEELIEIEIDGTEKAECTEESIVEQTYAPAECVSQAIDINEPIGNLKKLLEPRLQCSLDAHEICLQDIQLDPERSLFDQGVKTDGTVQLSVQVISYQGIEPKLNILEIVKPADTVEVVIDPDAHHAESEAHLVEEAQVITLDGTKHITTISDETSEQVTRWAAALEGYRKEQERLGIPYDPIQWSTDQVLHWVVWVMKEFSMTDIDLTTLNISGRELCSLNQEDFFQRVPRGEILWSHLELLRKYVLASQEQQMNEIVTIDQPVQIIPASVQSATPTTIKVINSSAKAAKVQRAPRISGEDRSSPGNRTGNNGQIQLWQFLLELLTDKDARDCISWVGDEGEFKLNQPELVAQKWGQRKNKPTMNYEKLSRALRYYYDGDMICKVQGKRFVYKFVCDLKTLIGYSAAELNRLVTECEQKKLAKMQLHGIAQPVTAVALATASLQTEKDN
UniProt P19440: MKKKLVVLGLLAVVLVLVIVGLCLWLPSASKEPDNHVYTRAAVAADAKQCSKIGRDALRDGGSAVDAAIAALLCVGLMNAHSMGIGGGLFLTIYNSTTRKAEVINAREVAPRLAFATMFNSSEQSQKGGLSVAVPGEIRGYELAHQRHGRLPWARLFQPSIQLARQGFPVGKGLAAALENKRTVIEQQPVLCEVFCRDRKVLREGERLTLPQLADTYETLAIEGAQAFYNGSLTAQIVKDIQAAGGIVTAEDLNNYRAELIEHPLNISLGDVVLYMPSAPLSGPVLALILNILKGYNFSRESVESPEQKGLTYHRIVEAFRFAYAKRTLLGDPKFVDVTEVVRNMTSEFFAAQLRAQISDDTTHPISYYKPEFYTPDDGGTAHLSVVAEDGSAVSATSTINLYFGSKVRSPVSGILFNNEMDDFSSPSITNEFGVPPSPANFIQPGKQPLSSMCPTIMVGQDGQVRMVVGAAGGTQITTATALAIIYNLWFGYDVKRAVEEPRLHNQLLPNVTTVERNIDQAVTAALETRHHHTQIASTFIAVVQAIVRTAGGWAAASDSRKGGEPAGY
UniProt Q9NZC3: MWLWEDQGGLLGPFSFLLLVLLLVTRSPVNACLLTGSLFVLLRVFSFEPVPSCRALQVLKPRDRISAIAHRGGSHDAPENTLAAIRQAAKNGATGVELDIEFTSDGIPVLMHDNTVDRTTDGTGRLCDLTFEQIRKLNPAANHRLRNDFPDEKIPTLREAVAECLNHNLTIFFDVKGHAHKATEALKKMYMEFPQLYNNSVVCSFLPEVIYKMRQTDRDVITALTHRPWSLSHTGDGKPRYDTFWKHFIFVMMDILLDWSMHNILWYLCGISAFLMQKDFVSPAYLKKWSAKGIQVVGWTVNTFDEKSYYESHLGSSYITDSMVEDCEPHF
UniProt Q9NXN4: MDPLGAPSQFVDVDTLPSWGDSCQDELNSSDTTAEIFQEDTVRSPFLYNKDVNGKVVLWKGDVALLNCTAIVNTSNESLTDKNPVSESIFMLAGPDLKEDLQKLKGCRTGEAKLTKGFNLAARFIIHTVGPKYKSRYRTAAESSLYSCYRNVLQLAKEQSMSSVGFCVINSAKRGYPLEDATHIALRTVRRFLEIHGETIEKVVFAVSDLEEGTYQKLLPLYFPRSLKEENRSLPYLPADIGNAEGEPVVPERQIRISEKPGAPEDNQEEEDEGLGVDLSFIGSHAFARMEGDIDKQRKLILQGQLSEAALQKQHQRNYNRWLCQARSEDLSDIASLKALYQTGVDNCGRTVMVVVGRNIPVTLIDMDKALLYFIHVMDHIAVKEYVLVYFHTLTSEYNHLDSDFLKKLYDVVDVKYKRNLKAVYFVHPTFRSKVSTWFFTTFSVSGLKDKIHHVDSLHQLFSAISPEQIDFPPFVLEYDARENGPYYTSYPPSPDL
UniProt A2VDF0: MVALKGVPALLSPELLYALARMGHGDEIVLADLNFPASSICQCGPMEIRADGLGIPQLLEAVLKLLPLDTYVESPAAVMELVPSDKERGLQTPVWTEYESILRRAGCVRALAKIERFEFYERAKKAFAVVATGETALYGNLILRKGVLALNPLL
UniProt Q05932: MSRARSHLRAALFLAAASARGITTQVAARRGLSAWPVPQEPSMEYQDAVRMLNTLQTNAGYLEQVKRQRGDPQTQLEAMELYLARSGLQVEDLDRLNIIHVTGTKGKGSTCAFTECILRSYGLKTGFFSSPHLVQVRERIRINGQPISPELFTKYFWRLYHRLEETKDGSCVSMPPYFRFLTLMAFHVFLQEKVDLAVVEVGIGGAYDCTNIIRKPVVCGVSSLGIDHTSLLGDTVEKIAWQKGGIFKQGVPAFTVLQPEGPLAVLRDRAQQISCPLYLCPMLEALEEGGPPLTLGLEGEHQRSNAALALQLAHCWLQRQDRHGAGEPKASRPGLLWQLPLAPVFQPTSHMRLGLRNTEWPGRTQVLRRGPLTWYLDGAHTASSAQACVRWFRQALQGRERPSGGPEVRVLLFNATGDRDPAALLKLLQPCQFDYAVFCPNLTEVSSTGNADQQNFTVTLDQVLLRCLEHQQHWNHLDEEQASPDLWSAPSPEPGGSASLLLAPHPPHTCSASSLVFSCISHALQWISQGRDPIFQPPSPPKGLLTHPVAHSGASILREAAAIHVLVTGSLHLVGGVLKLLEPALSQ
UniProt Q8WXI9: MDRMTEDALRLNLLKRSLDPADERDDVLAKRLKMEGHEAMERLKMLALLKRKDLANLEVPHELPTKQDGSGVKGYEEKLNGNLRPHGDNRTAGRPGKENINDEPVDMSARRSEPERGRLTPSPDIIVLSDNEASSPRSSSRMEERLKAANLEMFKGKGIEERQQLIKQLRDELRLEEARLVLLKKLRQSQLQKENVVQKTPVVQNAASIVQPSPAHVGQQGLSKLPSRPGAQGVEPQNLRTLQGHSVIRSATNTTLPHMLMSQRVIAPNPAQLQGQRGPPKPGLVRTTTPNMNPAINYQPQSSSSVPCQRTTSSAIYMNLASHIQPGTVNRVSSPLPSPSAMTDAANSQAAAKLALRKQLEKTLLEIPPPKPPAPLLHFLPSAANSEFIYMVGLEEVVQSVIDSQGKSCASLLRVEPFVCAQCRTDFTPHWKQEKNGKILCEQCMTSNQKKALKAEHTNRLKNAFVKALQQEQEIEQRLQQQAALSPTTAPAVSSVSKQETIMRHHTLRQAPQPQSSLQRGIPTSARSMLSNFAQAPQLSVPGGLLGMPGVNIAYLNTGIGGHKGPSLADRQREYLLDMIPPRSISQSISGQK
UniProt Q8WTR4: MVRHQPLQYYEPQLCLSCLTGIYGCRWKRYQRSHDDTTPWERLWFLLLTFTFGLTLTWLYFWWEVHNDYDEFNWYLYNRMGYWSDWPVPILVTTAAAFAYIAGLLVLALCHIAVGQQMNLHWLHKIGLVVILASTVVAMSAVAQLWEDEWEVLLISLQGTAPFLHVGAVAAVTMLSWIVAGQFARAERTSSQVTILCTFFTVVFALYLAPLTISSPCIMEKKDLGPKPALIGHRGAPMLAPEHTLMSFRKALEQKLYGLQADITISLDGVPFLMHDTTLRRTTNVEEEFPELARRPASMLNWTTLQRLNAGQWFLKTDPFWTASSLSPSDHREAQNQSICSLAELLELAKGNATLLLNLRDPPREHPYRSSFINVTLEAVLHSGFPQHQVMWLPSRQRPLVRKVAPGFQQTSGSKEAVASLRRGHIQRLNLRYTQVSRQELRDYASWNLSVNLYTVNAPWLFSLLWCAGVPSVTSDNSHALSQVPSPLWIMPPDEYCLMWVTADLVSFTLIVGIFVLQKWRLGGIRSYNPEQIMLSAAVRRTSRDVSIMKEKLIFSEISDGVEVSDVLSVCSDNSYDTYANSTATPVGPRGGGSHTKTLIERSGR
UniProt Q8IWF2: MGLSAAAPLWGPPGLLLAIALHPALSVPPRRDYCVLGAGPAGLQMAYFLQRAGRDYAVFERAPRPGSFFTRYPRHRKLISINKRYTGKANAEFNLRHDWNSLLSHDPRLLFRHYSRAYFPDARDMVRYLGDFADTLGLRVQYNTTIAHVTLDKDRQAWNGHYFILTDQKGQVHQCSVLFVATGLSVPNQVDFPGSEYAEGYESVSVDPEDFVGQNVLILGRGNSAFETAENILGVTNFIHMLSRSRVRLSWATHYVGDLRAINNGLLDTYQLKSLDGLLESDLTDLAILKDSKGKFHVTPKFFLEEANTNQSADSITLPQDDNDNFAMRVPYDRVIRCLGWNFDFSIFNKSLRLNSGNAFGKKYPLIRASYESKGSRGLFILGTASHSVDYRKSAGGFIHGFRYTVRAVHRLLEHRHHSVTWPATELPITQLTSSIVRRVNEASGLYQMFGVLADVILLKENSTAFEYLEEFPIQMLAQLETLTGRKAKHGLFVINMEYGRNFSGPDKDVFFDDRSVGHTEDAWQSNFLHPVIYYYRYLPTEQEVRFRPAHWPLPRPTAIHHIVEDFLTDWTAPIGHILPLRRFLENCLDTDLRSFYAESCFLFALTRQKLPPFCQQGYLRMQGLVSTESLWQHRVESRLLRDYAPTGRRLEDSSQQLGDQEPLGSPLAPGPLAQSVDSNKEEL
UniProt Q9NXC2: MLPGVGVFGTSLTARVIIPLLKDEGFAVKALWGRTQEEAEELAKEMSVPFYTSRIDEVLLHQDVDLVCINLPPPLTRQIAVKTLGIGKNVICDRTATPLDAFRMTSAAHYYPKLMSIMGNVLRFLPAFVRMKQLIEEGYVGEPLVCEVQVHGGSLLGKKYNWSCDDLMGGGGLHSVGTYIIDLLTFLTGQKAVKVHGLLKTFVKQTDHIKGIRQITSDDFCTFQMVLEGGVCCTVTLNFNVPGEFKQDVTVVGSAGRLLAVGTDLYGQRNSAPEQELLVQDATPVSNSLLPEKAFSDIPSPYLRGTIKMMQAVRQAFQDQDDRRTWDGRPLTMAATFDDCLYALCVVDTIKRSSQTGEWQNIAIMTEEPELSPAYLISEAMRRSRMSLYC

How the values were obtained:
Assay in all cases: log2 fold change, soluble protein after heating vs DMSO (PISA); higher = thermal stabilisation; K562 cells, 10 uM, 30 min; active = over 0.2 and 3.5 SD of the protein, either way, in both replicates (recomputed)
[1] = compound: C1COCCN1CCN2C3=CC=CC=C3N=C2NC(=O)C4=CC(=CC=C4)[N+](=O)[O-] [IRAK-1-4 Inhibitor I]
Summary of the method: (§1)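 Values are thermal stability changes relative to control samples and are taken from duplicates. They are stated as log2 fold changes. Before quantification by TMTpro 16plex LC-MS/MS with equalised channel sums, K562 cells at 2×10^6 cells/mL were treated with 10 μM compound for 30 min, heated in aliquots for 3 min across 48°C-58°C, pooled, extracted in PBS with 0.5% NP-40 at 4°C, and centrifuged at 21,000xg for 90 min to give the soluble supernatant.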

[2] = compound: C=CC(=O)N1CCC[C@@H](n2nc(-c3ccc(Oc4ccccc4)cc3)c3c(N)ncnc32)C1 [ibrutinib]
Summary of the method: as §1

[3] = compound: CC(=O)c1cnc2ccc(-c3cc(Cl)c(O)c(Cl)c3)nc2c1N[C@H]1CC[C@H](CN(C)C)CC1
Summary of the method: as §1

[4] = compound: CC(C)(C)Cn1c(N)nc2ccc(-c3[nH]c(C(C)(C)C)nc3-c3ccc(F)cc3)nc21 [ralimetinib]
Summary of the method: as §1

[5] = compound: CC(C)(O)CC(=O)NCCn1ccc2ncnc(Nc3ccc(Oc4cccc(C(F)(F)F)c4)c(Cl)c3)c21
Summary of the method: as §1

[6] = compound: CC(C)C1=C2N=C(C=C(N2N=C1)NCC3=CC=CC=C3)NCCCCCCN
Summary of the method: as §1

[7] = compound: CC(C)C[C@@H](C=O)NC(=O)[C@H](CC(C)C)NC(=O)[C@H](CC(C)C)NC(=O)OCc1ccccc1
Summary of the method: as §1

[8] = compound: CC(C)N(C[C@H]1O[C@@H](n2cnc3c(N)ncnc32)[C@H](O)[C@@H]1O)[C@H]1C[C@@H](CCc2nc3cc(C(C)(C)C)ccc3[nH]2)C1 [pinometostat]
Summary of the method: as §1

[9] = compound: CC1=C(C2=C(C=C1)C(=O)C3=CC=CC=C3N2CCCN)C
Summary of the method: as §1

[10] = compound: CC1=C(C(CC(=O)N1)C2=CC=C(C=C2)C(F)(F)F)C(=O)NC3=C(C=C4C(=C3)C=NN4)F
Summary of the method: as §1

Measured: log2 fold change

GDI1 (UniProt P31150)
inactive: [1] 0.034 | [2] 0.018 | [3] -0.027 | [4] -0.057 | [5] 0.009 | [6] 0.04 | [7] -0.012 | [8] -0.008 | [9] 0.011

GALNT4 (UniProt Q8N4A0)
active: [5] -0.41
inactive: [1] 0.038 | [2] 0.011 | [3] -0.061 | [4] -0.003 | [6] -0.041 | [7] -0.002 | [8] 0.014 | [9] 0.072

GATD1 (UniProt Q8NB37)
inactive: [1] -0.069 | [2] 0.106 | [3] -0.099 | [4] -0.026 | [5] 0.01 | [6] 0.026 | [7] 0.104 | [8] 0.141 | [9] 0

GCDH (UniProt Q92947)
inactive: [1] 0.018 | [2] 0.025 | [3] -0.092 | [4] 0.007 | [5] -0.09 | [6] 0.05 | [7] 0.003 | [8] -0.053 | [9] 0.055

GABARAPL2 (UniProt P60520)
inactive: [1] 0.107 | [2] -0.018 | [3] -0.076 | [4] 0.008 | [5] -0.028 | [7] -0.007 | [8] -0.103 | [9] -0.015
active: [6] -0.269

FYB1 isoform 3 (UniProt O15117)
inactive: [1] 0.009 | [2] -0.012 | [3] -0.193 | [4] 0.308 | [5] 0.06 | [6] -0.069 | [7] 0.226 | [8] 0.002 | [9] 0.129

GGT7 (UniProt Q9UJ14)
inactive: [1] 0.04 | [2] 0.038 | [3] 0.02 | [4] -0.046 | [5] 0.015 | [6] 0.095 | [7] 0.001 | [8] -0.005 | [9] -0.031

GCC2 (UniProt Q8IWJ2)
inactive: [1] -0.046 | [2] -0.023 | [3] 0.105 | [4] 0.131 | [5] 0 | [6] -0.075 | [7] 0.111 | [8] 0.198 | [9] -0.091

GBE1 (UniProt Q04446)
inactive: [1] -0.241 | [2] -0.026 | [3] -0.102 | [4] 0.051 | [5] -0.074 | [6] -0.23 | [7] 0.027 | [8] 0.186 | [9] 0.04

GFER (UniProt P55789)
inactive: [1] 0.036 | [2] -0.016 | [3] -0.044 | [4] -0.113 | [5] 0.034 | [6] -0.213 | [7] 0.088 | [8] 0 | [10] -0.003 | [9] -0.003

GALK1 isoform 2 (UniProt P51570)
inactive: [1] 0.046 | [2] 0.024 | [3] 0.018 | [4] 0.081 | [5] -0.081 | [6] -0.004 | [7] -0.121 | [8] 0.041 | [9] -0.018

GCLM (UniProt P48507)
inactive: [1] -0.065 | [2] -0.038 | [3] 0.106 | [4] 0.002 | [5] -0.104 | [6] -0.034 | [7] 0.02 | [8] 0.049 | [9] -0.023

GABPA (UniProt Q06546)
inactive: [1] -0.004 | [2] -0.014 | [3] -0.054 | [4] 0.001 | [5] -0.107 | [6] -0.243 | [7] -0.013 | [8] -0.007 | [9] -0.175

GBA2 (UniProt Q9HCG7)
inactive: [1] -0.082 | [2] -0.027 | [3] -0.073 | [5] 0.048 | [6] 0.326 | [8] 0.121 | [9] -0.003

GGT1 (UniProt P19440)
inactive: [1] 0.039 | [2] -0.027 | [3] 0.01 | [5] -0.086 | [6] 0.005 | [8] -0.116 | [9] -0.121

FOPNL (UniProt Q96NB1)
inactive: [1] 0.026 | [2] -0.002 | [3] -0.005 | [5] 0.157 | [6] 0.041 | [8] 0.033 | [10] -0.399 | [9] -0.041

GATB (UniProt O75879)
inactive: [1] -0.282 | [3] -0.338 | [4] -0.018 | [5] -0.202 | [6] -0.04 | [7] -0.323 | [8] -0.237 | [10] -0.238 | [9] 0.16

Copied from the results shown (10 entries):
GDI1 (UniProt P31150)
inactive: [1] 0.034 | [2] 0.018 | [3] -0.027 | [4] -0.057 | [5] 0.009 | [6] 0.04 | [7] -0.012 | [8] -0.008 | [9] 0.011

GALNT4 (UniProt Q8N4A0)
active: [5] -0.41
inactive: [1] 0.038 | [2] 0.011 | [3] -0.061 | [4] -0.003 | [6] -0.041 | [7] -0.002 | [8] 0.014 | [9] 0.072

GATD1 (UniProt Q8NB37)
inactive: [1] -0.069 | [2] 0.106 | [3] -0.099 | [4] -0.026 | [5] 0.01 | [6] 0.026 | [7] 0.104 | [8] 0.141 | [9] 0

GCDH (UniProt Q92947)
inactive: [1] 0.018 | [2] 0.025 | [3] -0.092 | [4] 0.007 | [5] -0.09 | [6] 0.05 | [7] 0.003 | [8] -0.053 | [9] 0.055

GABARAPL2 (UniProt P60520)
inactive: [1] 0.107 | [2] -0.018 | [3] -0.076 | [4] 0.008 | [5] -0.028 | [7] -0.007 | [8] -0.103 | [9] -0.015
active: [6] -0.269

FYB1 isoform 3 (UniProt O15117)
inactive: [1] 0.009 | [2] -0.012 | [3] -0.193 | [4] 0.308 | [5] 0.06 | [6] -0.069 | [7] 0.226 | [8] 0.002 | [9] 0.129

GGT7 (UniProt Q9UJ14)
inactive: [1] 0.04 | [2] 0.038 | [3] 0.02 | [4] -0.046 | [5] 0.015 | [6] 0.095 | [7] 0.001 | [8] -0.005 | [9] -0.031

GCC2 (UniProt Q8IWJ2)
inactive: [1] -0.046 | [2] -0.023 | [3] 0.105 | [4] 0.131 | [5] 0 | [6] -0.075 | [7] 0.111 | [8] 0.198 | [9] -0.091

GBE1 (UniProt Q04446)
inactive: [1] -0.241 | [2] -0.026 | [3] -0.102 | [4] 0.051 | [5] -0.074 | [6] -0.23 | [7] 0.027 | [8] 0.186 | [9] 0.04

GFER (UniProt P55789)
inactive: [1] 0.036 | [2] -0.016 | [3] -0.044 | [4] -0.113 | [5] 0.034 | [6] -0.213 | [7] 0.088 | [8] 0 | [10] -0.003 | [9] -0.003

Further entries.

G6PD (UniProt E7EUI8)
inactive: [1] -0.215 | [8] -0.176

GAK (UniProt O14976)
inactive: [1] -0.222 | [3] 1.15 | [4] 1.13 | [5] -0.015 | [6] -0.81 | [7] 0.084 | [8] 0.344 | [9] -0.187

GALNT10 (UniProt Q86SR1)
inactive: [1] -0.003 | [2] 0.004 | [3] -0.005 | [5] -0.011 | [8] -0.001 | [10] 0.009

GEMIN2 (UniProt O14893)
inactive: [1] -0.046 | [2] 0.055 | [3] -0.061 | [4] 0.049 | [5] -0.307 | [7] 0.012 | [8] -0.096

GDE1 (UniProt Q9NZC3)
inactive: [1] -0.052 | [2] 0.031 | [3] -0.009 | [4] 0.02 | [5] -0.033 | [6] 0.067 | [7] 0.049 | [8] 0.054 | [9] 0.266

GDAP2 (UniProt Q9NXN4)
inactive: [1] 0.062 | [3] -0.175 | [5] -0.08 | [6] -0.549 | [8] 0.086 | [10] -0.133

FRA10AC1 isoform 3 (UniProt Q70Z53)
inactive: [1] 0.005 | [2] -0.014 | [3] 0.024 | [5] -0.024 | [6] 0.169 | [8] 0.001 | [9] -0.201

GARS1 (UniProt H7C443)
inactive: [1] 0.016 | [3] -0.098 | [4] -0.162 | [5] 0.103 | [6] 0.001 | [7] 0.148 | [8] 0.033 | [10] 0.025 | [9] 0.036

GAA (UniProt P10253)
inactive: [1] 0.043 | [3] -0.211 | [5] 0.076 | [6] 0.232 | [8] 0.093 | [9] 0.274

FUOM (UniProt A2VDF0)
inactive: [1] 0.02 | [2] 0.086 | [8] 0.031 | [10] 0.018 | [9] 0.067

FPGS (UniProt Q05932)
inactive: [1] 0.087 | [2] 0.009 | [4] -0.119 | [5] -0.11 | [6] 0.005 | [7] 0.082 | [8] -0.052

GATAD2B (UniProt Q8WXI9)
inactive: [1] -0.029 | [4] 0.064 | [5] -0.016 | [6] -0.022 | [7] -0.08 | [8] -0.062 | [9] 0.085

GDPD5 (UniProt Q8WTR4)
inactive: [1] 0.024 | [2] 0.276 | [5] -0.158 | [8] 0.21

FOXRED2 (UniProt Q8IWF2)
inactive: [1] -0.399 | [3] -0.12 | [4] 0.024 | [5] 0.071 | [6] -0.039 | [7] 0.188 | [8] 0.071 | [9] 0.061

GCC1 (UniProt Q96CN9)
inactive: [1] -0.169 | [4] 0.247 | [5] 0.048 | [6] 0.005 | [7] -0.006 | [8] 0.196 | [10] 0.077

GFOD1 (UniProt Q9NXC2)
inactive: [1] -0.102 | [5] 0.046 | [6] -0.186 | [8] 0.039

GABPB1 (UniProt Q06547)
inactive: [1] 0.041 | [2] 0.027 | [4] -0.283 | [6] -0.219 | [7] 0.193 | [8] 0.017 | [9] -0.318
